Measured values as given in publication PMC2065906.
These are yes or no findings as the source states them, for the method shown. Binding can be weak; no strength is given. Tags and fused reporters may be left off the sequences shown.

Molecular target: T1, TRα1-GST fusion protein (thyroid hormone receptor α1 fused to GST) (UniProt P63059)
T1 sequence: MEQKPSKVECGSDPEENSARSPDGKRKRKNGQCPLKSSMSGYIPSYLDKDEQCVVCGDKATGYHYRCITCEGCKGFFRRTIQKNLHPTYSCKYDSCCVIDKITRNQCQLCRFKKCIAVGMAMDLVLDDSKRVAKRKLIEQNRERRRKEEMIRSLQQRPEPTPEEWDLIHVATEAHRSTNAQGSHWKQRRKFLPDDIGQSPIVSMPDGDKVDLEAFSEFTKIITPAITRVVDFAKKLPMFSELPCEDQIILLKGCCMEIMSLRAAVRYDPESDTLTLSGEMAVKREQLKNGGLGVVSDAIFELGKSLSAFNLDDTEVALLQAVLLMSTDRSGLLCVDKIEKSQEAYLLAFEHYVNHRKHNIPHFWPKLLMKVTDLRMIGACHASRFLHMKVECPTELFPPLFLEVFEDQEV
Test: pull-down; GST or TRα1-GST (2 µg) immobilised on glutathione-Sepharose beads, incubated with 2 µg DOR-His, with or without 1 µM T3; 10 mM Tris/HCl, 200 mM NaCl, EDTA 0.2%, pH 7.5, 1 h at 4°C; Western blot with anti-His and anti-GST; both purified

binding: binds
Substance: Full-length DOR with a histidine-tagged N-terminus (DOR-His), purified from E. coli
